Data published in paper PMC5363040.
Results are given in words; binding and its absence hold for the method and conditions named.

Target: TEX101 (testis-expressed sequence 101 protein), free soluble form in seminal plasma (human) (UniProt Q9BY14)
Assay: SEC; pooled pre-vasectomy seminal plasma (500 ug total protein) on TSKgel G3000SW, 0.1 M NaH2PO4-Na2HPO4, 0.15 M NaCl, pH 7.0, 1 mL/min; TEX101 in each fraction measured by ELISA with DOC-based treatment; size by molecular weight standards

B1: TEX101 (testis-expressed sequence 101 protein), free soluble form in seminal plasma (protein, UniProt Q9BY14-1 26-222)
chain: LYCQKGLSMTVEADPANMFNWTTEEVETCDKGALCQETILIIKAGTETAILATKGCIPEGEEAITIVQHSSPPGLIVTSYSNYCEDSFCNDKDSLSQFWEFSETTASTVSTTLHCPTCVALGTCFSAPSLPCPNGTTRCYQGKLEITGGGIESSVEVKGCTAMIGCRLMSGILAVGPMFVREACPHQLLTQPRKTEN
binding: no binding
